{
  "source": "patent US4008209",
  "about": "(dated 1977)",
  "assay": "peptide synthesis",
  "conditions": "whole synthesis",
  "data": [
    {"substance": "(Pyr)Glu-His(Tos)-Trp-Ser(Bzl)-Tyr-(Bzl)-D-Leu-Leu-Arg(Tos)-Pro-NH-CH2 -CH3", "values": [
      {"measurement": "difficulty met", "value": "This crude product includes a large proportion of impurity which is likely to be methyl ester"}
    ]}
  ]
}
